{"source": "the supplement of paper PMC8728848", "assay_in_all_cases": "glycan array binding signal (z-score within array); higher = stronger binding", "conditions_in_all_cases": "glycan notation: IUPAC condensed, linker removed", "key": {"[1]": {"molecular_target": "Gal(b1-4)GlcNAc(b1-3)Gal(b1-4)Glc", "how_it_was_run": "(§1)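 The Consortium for Functional Glycomics database supplied 3228 glycan arrays, of which those lacking an available protein sequence were dropped. The binding signal, a within-array Z-score, was averaged across arrays of the same protein sequence and across linkers. Negative scores can be read as non-binding.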"}, "[2]": {"molecular_target": "Gal(b1-4)GlcNAc(b1-3)Gal(b1-4)GlcNAc", "how_it_was_run": "as §1"}, "[3]": {"molecular_target": "Gal(b1-4)GlcNAc(b1-3)Gal(b1-4)GlcNAc(b1-2)Man(a1-3)[Gal(b1-4)GlcNAc(b1-3)Gal(b1-4)GlcNAc(b1-2)Man(a1-6)]Man(b1-4)GlcNAc(b1-4)GlcNAc", "how_it_was_run": "as §1"}, "[4]": {"molecular_target": "Gal(b1-4)GlcNAc(b1-3)Gal(b1-4)GlcNAc(b1-2)Man(a1-3)[Gal(b1-4)GlcNAc(b1-3)Gal(b1-4)GlcNAc(b1-2)Man(a1-6)]Man(b1-4)GlcNAc(b1-4)[Fuc(a1-6)]GlcNAc", "how_it_was_run": "as §1"}, "[5]": {"molecular_target": "Gal(b1-4)GlcNAc(b1-3)Gal(b1-4)GlcNAc(b1-2)[Gal(b1-4)GlcNAc(b1-3)Gal(b1-4)GlcNAc(b1-6)]Man(a1-6)[Gal(b1-4)GlcNAc(b1-3)Gal(b1-4)GlcNAc(b1-2)Man(a1-3)]Man(b1-4)GlcNAc(b1-4)GlcNAc", "how_it_was_run": "as §1"}, "[6]": {"molecular_target": "Gal(b1-4)GlcNAc(b1-3)Gal(b1-4)GlcNAc(b1-2)[Gal(b1-4)GlcNAc(b1-3)Gal(b1-4)GlcNAc(b1-6)]Man(a1-6)[Gal(b1-4)GlcNAc(b1-3)Gal(b1-4)GlcNAc(b1-2)Man(a1-3)]Man(b1-4)GlcNAc(b1-4)[Fuc(a1-6)]GlcNAc", "how_it_was_run": "as §1"}, "[7]": {"molecular_target": "Gal(b1-4)GlcNAc(b1-3)Gal(b1-4)GlcNAc(b1-3)Gal(b1-4)GlcNAc", "how_it_was_run": "as §1"}, "[8]": {"molecular_target": "Gal(b1-4)GlcNAc(b1-3)Gal(b1-4)GlcNAc(b1-3)Gal(b1-4)GlcNAc(b1-2)Man(a1-3)[Gal(b1-4)GlcNAc(b1-3)Gal(b1-4)GlcNAc(b1-3)Gal(b1-4)GlcNAc(b1-2)Man(a1-6)]Man(b1-4)GlcNAc(b1-4)GlcNAc", "how_it_was_run": "as §1"}, "[9]": {"molecular_target": "Gal(b1-4)GlcNAc(b1-3)Gal(b1-4)GlcNAc(b1-3)Gal(b1-4)GlcNAc(b1-2)Man(a1-3)[Gal(b1-4)GlcNAc(b1-3)Gal(b1-4)GlcNAc(b1-3)Gal(b1-4)GlcNAc(b1-2)Man(a1-6)]Man(b1-4)GlcNAc(b1-4)[Fuc(a1-6)]GlcNAc", "how_it_was_run": "as §1"}, "[10]": {"molecular_target": "Gal(b1-4)GlcNAc(b1-3)Gal(b1-4)GlcNAc(b1-3)Gal(b1-4)GlcNAc(b1-2)[Gal(b1-4)GlcNAc(b1-3)Gal(b1-4)GlcNAc(b1-3)Gal(b1-4)GlcNAc(b1-6)]Man(a1-6)[Gal(b1-4)GlcNAc(b1-3)Gal(b1-4)GlcNAc(b1-3)Gal(b1-4)GlcNAc(b1-2)Man(a1-3)]Man(b1-4)GlcNAc(b1-4)[Fuc(a1-6)]GlcNAc", "how_it_was_run": "as §1"}, "[11]": {"molecular_target": "Gal(b1-4)GlcNAc(b1-3)Gal(b1-4)GlcNAc(b1-3)Gal(b1-4)GlcNAc(b1-3)Gal(b1-4)GlcNAc(b1-2)Man(a1-3)[Gal(b1-4)GlcNAc(b1-3)Gal(b1-4)GlcNAc(b1-3)Gal(b1-4)GlcNAc(b1-3)Gal(b1-4)GlcNAc(b1-2)Man(a1-6)]Man(b1-4)GlcNAc(b1-4)GlcNAc", "how_it_was_run": "as §1"}, "[12]": {"molecular_target": "Gal(b1-4)GlcNAc(b1-3)Gal(b1-4)GlcNAc(b1-3)Gal(b1-4)GlcNAc(b1-3)Gal(b1-4)GlcNAc(b1-2)Man(a1-3)[Gal(b1-4)GlcNAc(b1-3)Gal(b1-4)GlcNAc(b1-3)Gal(b1-4)GlcNAc(b1-3)Gal(b1-4)GlcNAc(b1-2)Man(a1-6)]Man(b1-4)GlcNAc(b1-4)[Fuc(a1-6)]GlcNAc", "how_it_was_run": "as §1"}, "[13]": {"molecular_target": "Gal(b1-4)GlcNAc(b1-3)Gal(b1-4)GlcNAc(b1-3)Gal(b1-4)GlcNAc(b1-3)Gal(b1-4)GlcNAc(b1-2)[Gal(b1-4)GlcNAc(b1-3)Gal(b1-4)GlcNAc(b1-3)Gal(b1-4)GlcNAc(b1-3)Gal(b1-4)GlcNAc(b1-6)]Man(a1-6)[Gal(b1-4)GlcNAc(b1-3)Gal(b1-4)GlcNAc(b1-3)Gal(b1-4)GlcNAc(b1-3)Gal(b1-4)GlcNAc(b1-2)Man(a1-3)]Man(b1-4)GlcNAc(b1-4)[Fuc(a1-6)]GlcNAc", "how_it_was_run": "as §1"}, "[14]": {"molecular_target": "Gal(b1-4)GlcNAc(b1-3)Gal(b1-4)GlcNAc(b1-3)Gal(b1-4)GlcNAc(b1-3)Gal(b1-4)GlcNAc(b1-3)Gal(b1-4)GlcNAc(b1-2)Man(a1-3)[Gal(b1-4)GlcNAc(b1-3)Gal(b1-4)GlcNAc(b1-3)Gal(b1-4)GlcNAc(b1-3)Gal(b1-4)GlcNAc(b1-3)Gal(b1-4)GlcNAc(b1-2)Man(a1-6)]Man(b1-4)GlcNAc(b1-4)GlcNAc", "how_it_was_run": "as §1"}, "[15]": {"molecular_target": "Gal(b1-4)GlcNAc(b1-3)Gal(b1-4)GlcNAc(b1-3)Gal(b1-4)GlcNAc(b1-3)Gal(b1-4)GlcNAc(b1-3)Gal(b1-4)GlcNAc(b1-2)Man(a1-3)[Gal(b1-4)GlcNAc(b1-3)Gal(b1-4)GlcNAc(b1-3)Gal(b1-4)GlcNAc(b1-3)Gal(b1-4)GlcNAc(b1-3)Gal(b1-4)GlcNAc(b1-2)Man(a1-6)]Man(b1-4)GlcNAc(b1-4)[Fuc(a1-6)]GlcNAc", "how_it_was_run": "as §1"}, "[16]": {"molecular_target": "Gal(b1-4)GlcNAc(b1-3)Gal(b1-4)GlcNAc(b1-3)Gal(b1-4)GlcNAc(b1-3)Gal(b1-4)GlcNAc(b1-3)Gal(b1-4)GlcNAc(b1-2)[Gal(b1-4)GlcNAc(b1-3)Gal(b1-4)GlcNAc(b1-3)Gal(b1-4)GlcNAc(b1-3)Gal(b1-4)GlcNAc(b1-3)Gal(b1-4)GlcNAc(b1-6)]Man(a1-6)[Gal(b1-4)GlcNAc(b1-3)Gal(b1-4)GlcNAc(b1-3)Gal(b1-4)GlcNAc(b1-3)Gal(b1-4)GlcNAc(b1-3)Gal(b1-4)GlcNAc(b1-2)Man(a1-3)]Man(b1-4)GlcNAc(b1-4)[Fuc(a1-6)]GlcNAc", "how_it_was_run": "as §1"}, "[17]": {"molecular_target": "Gal(b1-4)GlcNAc(b1-3)Gal(b1-4)GlcNAc(b1-3)Gal(b1-4)GlcNAc(b1-3)Gal(b1-4)GlcNAc(b1-3)Gal(b1-4)GlcNAc(b1-3)Gal(b1-4)GlcNAc(b1-2)Man(a1-3)[Gal(b1-4)GlcNAc(b1-3)Gal(b1-4)GlcNAc(b1-3)Gal(b1-4)GlcNAc(b1-3)Gal(b1-4)GlcNAc(b1-3)Gal(b1-4)GlcNAc(b1-3)Gal(b1-4)GlcNAc(b1-2)Man(a1-6)]Man(b1-4)GlcNAc(b1-4)GlcNAc", "how_it_was_run": "as §1"}, "[18]": {"molecular_target": "Gal(b1-4)GlcNAc(b1-3)Gal(b1-4)GlcNAc(b1-3)GalNAc", "how_it_was_run": "as §1"}, "[19]": {"molecular_target": "Gal(b1-4)GlcNAc(b1-3)Gal(b1-4)GlcNAc(b1-3)[Gal(b1-4)GlcNAc(b1-3)Gal(b1-4)GlcNAc(b1-6)]GalNAc", "how_it_was_run": "as §1"}}, "note": "The other results are listed elsewhere or left out.", "data": [{"binder": "PX9937I-bfa-538-26-538 (Bacteroides fragilis) (protein) DKLDLSPIDYYGSGSYWKTEAQATAYIDGIHKHLRDAAWQHTITFGELRGGRFITGASSDGMGVSNGDIILQNFDETHTGVSKFGDLFGRITNLNLFIARVTDATYLSDEMKNFYLGEVYGLRAFYYFDLYRIYGGVPLRLTADVVEGVIDPNKLYMARSTPKEVMTQIKSDLNKSMEYFGNMNDFDPYKRGKKVYWSKAATECLMGEVYLWTSKVTTGDDVANPADLTIAKTHLESVLNNYNLKMLDDFSQVFNAKNKANDEIIFAIRFLEGEATNSNGTFTYNVGTGSTKNRYQANGEVFGDALDIQNTGNQTYEYNKAVYQNFDDADTRKEATFIASYNKDGKTGELSLYGTHVRKNIGYVNAQGARVYCGDYIFYRLPWVYLTLAEIANMEGDNAAVAKYINLVRKRAYGNAWDETLYAYPETADFTTNELAILHEKDKEFIQEGQRWWDLRRMTLTKGGTPLVFCKEGSLLGDAPILNKSTEAHKLLWPIEKTMLNKDPALEQTPGYK", "values": [{"measurement": "glycan array binding signal (z-score)", "setting": "[1]", "value": 0.127}, {"measurement": "glycan array binding signal (z-score)", "setting": "[2]", "value": 0.876}, {"measurement": "glycan array binding signal (z-score)", "setting": "[3]", "value": 0.473}, {"measurement": "glycan array binding signal (z-score)", "setting": "[4]", "value": 0.184}, {"measurement": "glycan array binding signal (z-score)", "setting": "[5]", "value": -0.325}, {"measurement": "glycan array binding signal (z-score)", "setting": "[6]", "value": 0.095}, {"measurement": "glycan array binding signal (z-score)", "setting": "[7]", "value": -0.221}, {"measurement": "glycan array binding signal (z-score)", "setting": "[8]", "value": 6.36}, {"measurement": "glycan array binding signal (z-score)", "setting": "[9]", "value": 1.65}, {"measurement": "glycan array binding signal (z-score)", "setting": "[10]", "value": 0.977}, {"measurement": "glycan array binding signal (z-score)", "setting": "[11]", "value": 1.43}, {"measurement": "glycan array binding signal (z-score)", "setting": "[12]", "value": 1.15}, {"measurement": "glycan array binding signal (z-score)", "setting": "[13]", "value": 0.599}, {"measurement": "glycan array binding signal (z-score)", "setting": "[14]", "value": 1.74}, {"measurement": "glycan array binding signal (z-score)", "setting": "[15]", "value": 0.304}, {"measurement": "glycan array binding signal (z-score)", "setting": "[16]", "value": 0.003}, {"measurement": "glycan array binding signal (z-score)", "setting": "[17]", "value": 1.09}, {"measurement": "glycan array binding signal (z-score)", "setting": "[18]", "value": -0.178}, {"measurement": "glycan array binding signal (z-score)", "setting": "[19]", "value": -0.161}]}]}
